Assay results published in paper PMC8065335, “An integrative drug repositioning framework discovered a potential therapeutic agent targeting COVID-19” (Signal Transduction and Targeted Therapy, 2021).

Test system: SARS-CoV-2
Assay: in vitro anti-SARS-CoV-2 virus infection assay in Vero E6 cells, viral yield in supernatant by qRT-PCR
Format: cell-based
Conditions: Severe acute respiratory syndrome coronavirus 2, Vero C1008, read-out: % Inhibition of SARS-CoV-2 replication

CCS(=O)(=O)N1CC(CC#N)(n2cc(-c3ncnc4[nH]ccc34)cn2)C1 [Baricitinib] showed an inhibition at 3.2 µM of -6.63%.
